Data from paper PMC13035903.
These are yes or no findings as the source states them, for the method shown. In cells and extracts the contact can be indirect. These calls come from enrichment with a bait or labelling near it, and not all partners need be listed.

Protein sequences, listed by entry. Tags and fused reporters are not part of them.
UniProt Q9UKV0: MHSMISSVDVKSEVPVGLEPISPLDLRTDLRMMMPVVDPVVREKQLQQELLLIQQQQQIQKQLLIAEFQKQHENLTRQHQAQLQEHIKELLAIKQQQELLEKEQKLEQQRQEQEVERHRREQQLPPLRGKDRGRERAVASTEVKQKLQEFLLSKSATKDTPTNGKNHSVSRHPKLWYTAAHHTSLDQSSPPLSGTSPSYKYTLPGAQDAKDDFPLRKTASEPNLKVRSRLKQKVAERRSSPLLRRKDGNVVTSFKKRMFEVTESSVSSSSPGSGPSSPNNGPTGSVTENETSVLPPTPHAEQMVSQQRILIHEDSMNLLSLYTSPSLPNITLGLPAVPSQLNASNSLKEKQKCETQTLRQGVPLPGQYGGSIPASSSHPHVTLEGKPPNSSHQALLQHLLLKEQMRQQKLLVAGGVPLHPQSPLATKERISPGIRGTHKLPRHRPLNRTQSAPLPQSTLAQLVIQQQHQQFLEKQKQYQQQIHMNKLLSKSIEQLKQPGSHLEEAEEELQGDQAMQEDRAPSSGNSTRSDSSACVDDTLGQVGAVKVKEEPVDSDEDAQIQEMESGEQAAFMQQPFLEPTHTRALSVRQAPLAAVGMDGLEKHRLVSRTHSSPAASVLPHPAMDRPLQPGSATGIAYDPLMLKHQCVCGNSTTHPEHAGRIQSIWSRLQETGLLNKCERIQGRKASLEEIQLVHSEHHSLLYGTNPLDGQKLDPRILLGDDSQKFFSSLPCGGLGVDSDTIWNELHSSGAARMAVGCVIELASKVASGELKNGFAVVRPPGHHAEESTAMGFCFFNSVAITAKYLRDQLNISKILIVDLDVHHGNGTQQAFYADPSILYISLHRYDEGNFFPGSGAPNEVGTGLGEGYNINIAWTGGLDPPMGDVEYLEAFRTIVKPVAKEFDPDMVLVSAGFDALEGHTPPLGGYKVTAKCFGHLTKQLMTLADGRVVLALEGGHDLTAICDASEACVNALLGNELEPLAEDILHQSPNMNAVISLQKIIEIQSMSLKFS
UniProt P42224: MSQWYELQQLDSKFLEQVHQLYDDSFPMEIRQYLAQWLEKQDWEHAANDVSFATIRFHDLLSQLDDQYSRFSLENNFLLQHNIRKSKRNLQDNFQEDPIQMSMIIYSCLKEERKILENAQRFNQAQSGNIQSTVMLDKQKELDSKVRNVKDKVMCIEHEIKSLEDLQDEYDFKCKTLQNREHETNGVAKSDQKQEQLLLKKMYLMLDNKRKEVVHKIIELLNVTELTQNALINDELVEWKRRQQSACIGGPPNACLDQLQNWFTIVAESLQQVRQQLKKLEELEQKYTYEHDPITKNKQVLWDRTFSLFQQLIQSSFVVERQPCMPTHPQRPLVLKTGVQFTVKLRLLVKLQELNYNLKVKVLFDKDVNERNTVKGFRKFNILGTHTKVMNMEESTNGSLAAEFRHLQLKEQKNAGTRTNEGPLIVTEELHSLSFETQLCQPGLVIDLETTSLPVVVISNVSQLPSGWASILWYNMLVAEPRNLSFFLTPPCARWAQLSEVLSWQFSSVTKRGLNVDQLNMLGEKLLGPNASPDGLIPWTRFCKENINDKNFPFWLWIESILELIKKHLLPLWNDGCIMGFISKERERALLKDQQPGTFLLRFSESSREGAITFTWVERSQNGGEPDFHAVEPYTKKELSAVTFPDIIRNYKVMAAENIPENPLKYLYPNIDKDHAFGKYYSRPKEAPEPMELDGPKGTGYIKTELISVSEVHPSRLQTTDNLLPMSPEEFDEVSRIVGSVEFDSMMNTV

Biological target: T1, lysophosphatidylcholine acyltransferase 2 (human (endogenous in BEAS-2B)) (UniProt Q7L5N7)
T1 sequence: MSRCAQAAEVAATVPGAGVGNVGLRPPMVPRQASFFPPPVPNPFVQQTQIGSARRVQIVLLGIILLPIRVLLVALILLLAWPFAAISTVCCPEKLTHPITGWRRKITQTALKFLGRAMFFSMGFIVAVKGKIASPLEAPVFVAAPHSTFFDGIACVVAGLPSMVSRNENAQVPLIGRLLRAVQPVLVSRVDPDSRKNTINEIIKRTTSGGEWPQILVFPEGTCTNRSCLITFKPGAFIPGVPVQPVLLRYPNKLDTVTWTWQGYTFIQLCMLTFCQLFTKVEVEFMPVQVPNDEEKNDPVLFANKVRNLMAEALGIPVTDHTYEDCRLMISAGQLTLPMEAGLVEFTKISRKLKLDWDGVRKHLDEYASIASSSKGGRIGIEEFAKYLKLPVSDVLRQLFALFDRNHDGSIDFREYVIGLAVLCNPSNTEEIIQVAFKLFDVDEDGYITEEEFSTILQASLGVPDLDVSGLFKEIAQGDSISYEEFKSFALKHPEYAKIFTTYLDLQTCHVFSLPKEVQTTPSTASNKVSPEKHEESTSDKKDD
Experiment: affinity purification with mass spectrometry; IP-MS/MS: co-IP from BEAS-2B cells with anti-LPCAT2 antibody or IgG as negative control; captured proteins separated by SDS-PAGE, excised from the gel and analysed by mass spectrometry

Substance | binding
histone deacetylase 9 (from UniProt Q9UKV0 1-1011) (enzyme) | binds
transcription activator 1 (STAT1) (from UniProt P42224 1-750) | binds
